What all share (test): fluorescence polarization
For data set [1], the target named is T1, DDX21ΔN (human) (UniProt Q9NR30).
T1 sequence (looked up): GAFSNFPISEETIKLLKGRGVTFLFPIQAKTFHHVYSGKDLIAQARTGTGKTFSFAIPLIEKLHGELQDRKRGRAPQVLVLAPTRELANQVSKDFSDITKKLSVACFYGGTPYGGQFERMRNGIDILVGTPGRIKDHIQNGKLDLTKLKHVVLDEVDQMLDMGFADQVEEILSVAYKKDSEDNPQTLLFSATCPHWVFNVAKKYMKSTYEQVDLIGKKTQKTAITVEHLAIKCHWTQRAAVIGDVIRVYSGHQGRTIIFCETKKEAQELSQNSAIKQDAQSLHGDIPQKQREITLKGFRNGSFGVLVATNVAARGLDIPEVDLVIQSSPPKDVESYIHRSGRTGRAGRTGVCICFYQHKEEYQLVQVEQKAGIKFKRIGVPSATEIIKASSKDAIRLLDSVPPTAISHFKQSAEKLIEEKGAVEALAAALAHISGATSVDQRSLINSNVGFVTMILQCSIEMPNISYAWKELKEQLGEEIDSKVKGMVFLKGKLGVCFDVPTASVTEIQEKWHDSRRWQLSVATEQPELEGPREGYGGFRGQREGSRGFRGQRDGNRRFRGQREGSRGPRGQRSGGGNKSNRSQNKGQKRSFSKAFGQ
To be noted: 175/300 mM salt; FP: 50 mM Tris pH 7.5, 50 mM KCl, 5 mM MgCl2, no ATP; Hill-slope fit; recombinant protein; residues 186-783; label: 5'-FAM.

For data set [2], the target named is T2, DDX21ΔN monomer L611R,A612R,A613R,A614R,L615R,A616R (human) (UniProt Q9NR30).
T2 sequence (looked up): T1 sequence (looked up) with L426R, A427R, A428R, A429R, L430R, A431R
To be noted: 175/300 mM salt; FP: 50 mM Tris pH 7.5, 50 mM KCl, 5 mM MgCl2, no ATP; Hill-slope fit; recombinant protein; residues 186-783; label: 5'-FAM.

In data set [3] the target is T3, DDX21Core-DD (human) (UniProt Q9NR30).
T3 sequence (looked up): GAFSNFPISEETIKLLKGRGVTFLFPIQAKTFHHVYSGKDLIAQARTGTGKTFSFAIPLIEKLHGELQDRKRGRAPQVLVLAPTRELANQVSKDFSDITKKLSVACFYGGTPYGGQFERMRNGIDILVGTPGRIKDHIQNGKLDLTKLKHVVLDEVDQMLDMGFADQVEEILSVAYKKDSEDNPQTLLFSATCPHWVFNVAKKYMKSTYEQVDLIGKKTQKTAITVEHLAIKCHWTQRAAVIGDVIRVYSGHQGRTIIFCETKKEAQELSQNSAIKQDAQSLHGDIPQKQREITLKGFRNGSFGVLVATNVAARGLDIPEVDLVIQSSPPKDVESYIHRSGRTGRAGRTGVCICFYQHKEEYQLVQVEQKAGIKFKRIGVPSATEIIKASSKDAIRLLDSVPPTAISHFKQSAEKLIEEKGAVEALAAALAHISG
To be noted: 175/300 mM salt, weak binding, Kd cannot be fit; FP: 50 mM Tris pH 7.5, 50 mM KCl, 5 mM MgCl2, no ATP; Hill-slope fit; recombinant protein; residues 186-620; protein details: C-terminal His6, uncleavable; label: 5'-FAM.

Data set [4] concerns the target T4, DDX21Fl (human) (UniProt Q9NR30).
T4 sequence (looked up): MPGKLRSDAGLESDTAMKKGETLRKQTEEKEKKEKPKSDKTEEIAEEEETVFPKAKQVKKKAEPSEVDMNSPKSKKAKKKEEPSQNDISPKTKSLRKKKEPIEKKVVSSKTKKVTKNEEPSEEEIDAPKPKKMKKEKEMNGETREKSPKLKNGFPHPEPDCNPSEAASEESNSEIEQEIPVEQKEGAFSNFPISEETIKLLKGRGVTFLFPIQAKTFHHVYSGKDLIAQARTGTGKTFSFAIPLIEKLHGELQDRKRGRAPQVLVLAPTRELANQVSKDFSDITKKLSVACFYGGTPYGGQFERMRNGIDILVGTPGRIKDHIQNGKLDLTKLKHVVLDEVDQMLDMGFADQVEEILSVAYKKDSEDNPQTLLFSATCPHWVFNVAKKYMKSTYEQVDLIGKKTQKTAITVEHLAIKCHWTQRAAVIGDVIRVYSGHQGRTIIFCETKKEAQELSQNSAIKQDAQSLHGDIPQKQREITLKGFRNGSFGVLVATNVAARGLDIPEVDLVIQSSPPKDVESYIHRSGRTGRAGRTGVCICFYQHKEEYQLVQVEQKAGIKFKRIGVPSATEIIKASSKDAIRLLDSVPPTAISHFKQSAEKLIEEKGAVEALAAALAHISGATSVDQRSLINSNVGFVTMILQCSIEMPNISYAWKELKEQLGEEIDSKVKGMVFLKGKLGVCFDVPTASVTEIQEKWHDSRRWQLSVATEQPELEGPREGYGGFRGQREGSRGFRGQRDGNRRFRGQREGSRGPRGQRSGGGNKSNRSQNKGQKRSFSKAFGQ
To be noted: FP: 50 mM Tris pH 7.5, 50 mM KCl, 5 mM MgCl2, no ATP, Hill-slope fit, recombinant protein, residues 1-783, protein details: N-terminal Trx-His6, cut with thrombin, label: 5'-FAM.

The target in data set [5] is T5, DDX21ΔNC (human) (UniProt Q9NR30).
T5 sequence (looked up): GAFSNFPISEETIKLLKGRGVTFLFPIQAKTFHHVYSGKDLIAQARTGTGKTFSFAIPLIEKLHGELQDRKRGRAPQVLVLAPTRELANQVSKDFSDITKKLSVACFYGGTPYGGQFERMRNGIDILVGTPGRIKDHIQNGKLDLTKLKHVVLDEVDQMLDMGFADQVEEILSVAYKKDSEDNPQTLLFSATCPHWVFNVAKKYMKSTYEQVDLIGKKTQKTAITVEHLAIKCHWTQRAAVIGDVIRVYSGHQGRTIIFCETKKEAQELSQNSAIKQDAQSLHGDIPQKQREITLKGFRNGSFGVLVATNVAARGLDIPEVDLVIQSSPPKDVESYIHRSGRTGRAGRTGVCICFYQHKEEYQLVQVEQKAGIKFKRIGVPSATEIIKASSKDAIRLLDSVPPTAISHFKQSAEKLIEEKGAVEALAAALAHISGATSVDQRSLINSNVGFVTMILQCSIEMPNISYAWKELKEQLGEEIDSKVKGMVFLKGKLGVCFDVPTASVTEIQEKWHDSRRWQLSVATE
The note with it: 175/300 mM salt, weak binding, Kd cannot be fit; FP: 50 mM Tris pH 7.5, 50 mM KCl, 5 mM MgCl2, no ATP; Hill-slope fit; recombinant protein; residues 186-710; label: 5'-FAM.

Numbering of substitutions follows the chain as printed. The exact form of at least one protein or probe is not confirmed. For part of these data: Weaker means in comparison with the reference protein, sequence or condition of that experiment. Tags and fusion partners may be left off the protein sequences shown.

Take “GUUGGGGCGGGCGUUGGGUUUGGGGGGACG [Q2 RNA G-quadruplex]”: the Kd (usually the constant that tells how readily two partners part at equilibrium) in data set [1] amounted to 20.1 nM; in data set [2], 8.7 nM; in data set [4] (25 mM KCl, 500 mM NaCl, 2.5 mM MgCl2, 5% glycerol) it was 1660 nM; in data set [4] (175 mM salt), 35.7 nM. Besides, the binding result in data set [3] and in data set [5] was “binds more weakly” throughout.

The values above are taken from publication PMC7721647, “The Human RNA Helicase DDX21 Presents a Dimerization Interface Necessary for Helicase Activity” (iScience, 2020).
